The test system of this experiment is BDF1 mice, P388 leukemia ip, median survival T/C. Put plainly: NCI In Vivo Anticancer Drug Screen. Data for tumor model P388 Leukemia (intraperitoneal) in B6D2F1 (BDF1) mice. The settings on record: T/C endpoint: median survival time, higher T/C = longer survival. The method, boiled down:
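Vehicle-dosed animals serve as the reference; survival of compound-dosed, tumour-implanted mice is divided by it.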

Where [1] appears, read: dose: 400.0 mg/kg/injection, schedule: Q01DX001 (ip), vehicle: saline.
The mark [2] stands for this setting: dose: 100.0 mg/kg/injection, schedule: Q01DX009 (ip), vehicle: saline with Tween-80.
Setting [3] is: dose: 200.0 mg/kg/injection, schedule: Q01DX009 (ip), vehicle: saline with Tween-80.
The mark [4] stands for this setting: dose: 100.0 mg/kg/injection, schedule: Q04DX003 (ip), vehicle: saline with Tween-80.
Where [5] appears, read: dose: 25.0 mg/kg/injection, schedule: Q01DX009 (ip), vehicle: saline with Tween-80.
Setting [6] is: dose: 25.0 mg/kg/injection, schedule: Q01DX009 (ip), vehicle: saline.

The list does not hold the whole screen: it gathers tests that were run many times, whatever their T/C, doses with no T/C, and many T/C values between a quarter and a half above the control. Other doses and runs of a compound stand elsewhere. T/C gives the treated animals as a percentage of the vehicle group. Some doses have a count of surviving animals in place of a T/C: the source files T/C as zero there, which appears to mark a toxic dose or a test without result, not a measured value. Some survivor counts are full or nearly so, which does not show that the dose was tolerated: the source hardly ever lists a survival T/C far under the control, and the zero likely stands for such cases as well. Counts of survivors are from the toxicity check (mostly the fifth day) where no day follows; animals may have died later. Schedules are NCI's codes, taken here to give the interval after Q, in days (D) or hours (H), and the number of doses after X. For survival time, the PubChem record calls one and a half times the control and up active, and a quarter to a half above the control has no call in these data; cut-offs in other NCI protocols can differ.

For the compound `O=C(c1ccccc1)c1cc[n+]([O-])cc1`, for the setting “dose: 300.0 mg/kg/injection, schedule: Q01DX001 (ip), vehicle: saline sonified”, the survivor count was 6 of 6.

With `CCCCn1c(Cl)c(/C=N\Nc2ccccc2[N+](=O)[O-])c2ccccc21`, the survivor count (dose: 100.0 mg/kg/injection, schedule: Q01DX001 (ip), vehicle: Klucel (hydroxypropylcellulose) (HPC)) is 6 of 6 and the survivor count (dose: 400.0 mg/kg/injection, schedule: Q01DX001 (ip), vehicle: Klucel (hydroxypropylcellulose) (HPC)) is 6 of 6.

As to `O=S1(=O)C=CCCC=C1`, the survivor count (dose: 200.0 mg/kg/injection, schedule: Q01DX009 (ip), vehicle: Klucel (hydroxypropylcellulose) (HPC)) is reported as 0 of 6. Consider `O=C(O)CCI`, for which the survivor count runs as follows: (dose: 200.0 mg/kg/injection, schedule: Q04DX003 (ip), vehicle: saline with Tween-80) 6 of 6; under setting [1], 2 of 6; (dose: 400.0 mg/kg/injection, schedule: Q04DX003 (ip), vehicle: saline with Tween-80) 5 of 6. In the case of `CN(C)C1C(=O)C(C(=O)NCN2CCOB(c3ccccc3)OCC2)=C(O)C2(O)C(O)=C3C(=O)C4C(O)=CC=CC4C(C)(O)C3CC12` (configuration not stated), the survivor count (dose: 100.0 mg/kg/injection, schedule: Q04DX002 (ip), vehicle: saline with Tween-80) is 6 of 6. Turning to `CCCn1c2nc(=O)[nH]c(=O)c-2[n+]([O-])c2ccccc21`, the survivor count is 0 of 6 (dose: 100.0 mg/kg/injection, schedule: Q01DX001 (ip), vehicle: saline with Tween-80); 0 of 6 (dose: 200.0 mg/kg/injection, schedule: Q01DX001 (ip), vehicle: saline with Tween-80); 0 of 6 (dose: 400.0 mg/kg/injection, schedule: Q01DX001 (ip), vehicle: saline with Tween-80). In the case of `Oc1c(Cl)cc(Cl)cc1C1Nc2ccccc2-n2cccc21` (configuration not stated), the survivor count is, setting by setting: (dose: 50.0 mg/kg/injection, schedule: Q01DX009 (ip), vehicle: saline with Tween-80) 6 of 6; under setting [2], 6 of 6. In the case of `CCOC(=O)C(F)C(Br)C(=O)OCC` (configuration not stated), the T/C is 130 % of control under setting [2] and 134 % of control under setting [3]. For the setting “dose: 400.0 mg/kg/injection, schedule: Q01DX009 (ip), vehicle: saline with Tween-80”, the survivor count is reported as 2 of 6.

`Cc1ccc(S(=O)(=O)OCCN(CCOS(=O)(=O)c2ccc(C)cc2)c2ccc(F)cc2)cc1`: the T/C (dose: 100.0 mg/kg/injection, schedule: Q04DX003 (ip), vehicle: other) is 136 % of control and the T/C (dose: 150.0 mg/kg/injection, schedule: Q01DX009 (ip), vehicle: other) was 136 % of control. The survivor count (dose: 400.0 mg/kg/injection, schedule: Q01DX009 (ip), vehicle: other) was 4 of 6. On to `OC(CCl)COCC#Cc1ccccc1` (configuration not stated), for which the survivor count under setting [4] is 3 of 6. `CN(C)CCCNC(=S)S`: the survivor count is listed as 2 of 6 (dose: 100.0 mg/kg/injection, schedule: Q01DX001 (ip), vehicle: saline); 1 of 6 (dose: 200.0 mg/kg/injection, schedule: Q01DX001 (ip), vehicle: saline); 1 of 6 under setting [1].

For the compound `ON=C1CSSC1`, the survivor count (dose: 20.0 mg/kg/injection, schedule: Q04DX003 (ip), vehicle: saline with Tween-80) is given as 0 of 6; the survivor count under setting [5] is recorded as 0 of 6; the survivor count (dose: 25.0 mg/kg/injection, schedule: Q04DX003 (ip), vehicle: saline with Tween-80) is on record as 1 of 6.

On to `CO/C(O)=c1/nc2c(n(C)c1=N)=CCCC2`, for which, under setting [3], the survivor count is recorded as 3 of 6. As to `ClCCN(CCCl)c1ccc(CNCCCNCc2ccc(N(CCCl)CCCl)cc2)cc1`, the T/C runs as follows: (dose: 1.65 mg/kg/injection, schedule: Q01DX009 (ip), vehicle: Klucel (hydroxypropylcellulose) (HPC)) 136 % of control; (dose: 1.65 mg/kg/injection, schedule: Q01DX009 (ip), vehicle: saline sonified) 145 % of control; (dose: 2.5 mg/kg/injection, schedule: Q01DX009 (ip), vehicle: Klucel (hydroxypropylcellulose) (HPC)) 136 % of control; (dose: 3.75 mg/kg/injection, schedule: Q01DX009 (ip), vehicle: Klucel (hydroxypropylcellulose) (HPC)) 145 % of control. Turning to `CCCCCCCCCCCCCCCC(N)=O`, the survivor count by setting is: (dose: 25.0 mg/kg/injection, schedule: Q01DX009 (ip), vehicle: gum acacia) 6 of 6; (dose: 100.0 mg/kg/injection, schedule: Q01DX009 (ip), vehicle: gum acacia) 6 of 6; (dose: 200.0 mg/kg/injection, schedule: Q01DX009 (ip), vehicle: gum acacia) 6 of 6; (dose: 400.0 mg/kg/injection, schedule: Q01DX009 (ip), vehicle: gum acacia) 6 of 6. On to `CS(=O)(=O)OCCCCCCCCCOS(C)(=O)=O`, for which the T/C (dose: 75.0 mg/kg/injection, schedule: Q04DX003 (ip), vehicle: saline with Tween-80) was 127 % of control. In the case of `CCC1CN1P(=O)(Oc1ccc2ccccc2c1)N1CC1CC` (configuration not stated), the T/C under setting [4] is 127 % of control. On to `CCCCCCCCCCCCCCCCCCCC`, for which the survivor count (dose: 25.0 mg/kg/injection, schedule: Q01DX009 (ip), vehicle: other) is reported as 5 of 6. Consider `CSc1sc2ccccc2[n+]1C`, for which the survivor count (dose: 200.0 mg/kg/injection, schedule: Q01DX009 (ip), vehicle: saline) is listed as 1 of 6. In the case of `CCS(=O)(=O)c1ncc2cnccn12`, the survivor count (dose: 400.0 mg/kg/injection, schedule: Q04DX003 (ip), vehicle: water) was 0 of 6. As for `Cc1cc(C)c(S(=O)(=O)OCCCl)c(C)c1`, for the setting “dose: 200.0 mg/kg/injection, schedule: Q01DX005 (ip), vehicle: Klucel (hydroxypropylcellulose) (HPC)”, the survivor count was 0 of 6. As for `c1ccc(C23c4ccccc4C(=NC4CCCCC4)C2N3C2CCCCC2)cc1` (configuration not stated), the survivor count (dose: 400.0 mg/kg/injection, schedule: Q04DX003 (ip), vehicle: Klucel (hydroxypropylcellulose) (HPC)) is given as 6 of 6. Take `CCC12C=CCN3CCC4(c5cc(C(c6ccc(OC)cc6)c6cc7ccccc7[nH]6)c(OC)cc5N(C)C4C(O)(CO)C1O)C32` (configuration not stated): the survivor count is 6 of 6 under setting [6]; 6 of 6 (dose: 50.0 mg/kg/injection, schedule: Q01DX009 (ip), vehicle: saline); 2 of 6 (dose: 100.0 mg/kg/injection, schedule: Q01DX009 (ip), vehicle: saline).

On to `CCN(CC)c1cccc(N)c1`, for which, for the setting “dose: 200.0 mg/kg/injection, schedule: Q01DX009 (sc), vehicle: olive oil, sesame oil, peanut oil”, the survivor count is 0 of 6. As to `COC(=O)/C(=C1/OC(=O)C(c2ccccc2)=C1O)c1ccccc1`, the T/C under setting [5] was 127 % of control. For the same compound, the survivor count under setting [2] was 0 of 3. With `Nc1nccc(NC(c2ccccc2)c2ccccc2)c1N`, the survivor count (dose: 25.0 mg/kg/injection, schedule: Q01DX009 (ip), vehicle: DMSO) is 1 of 6 and the survivor count (dose: 50.0 mg/kg/injection, schedule: Q01DX009 (ip), vehicle: DMSO) was 0 of 6.

Regarding `Cn1/c2cc/c1=C(\c1ccc(S(=O)(=O)O)cc1)c1ccc([n-]1)/C(c1ccc(S(=O)(=O)O)cc1)=c1/cc/c([nH]1)=C(\c1ccc(S(=O)(=O)O)cc1)c1ccc([n-]1)/C=2c1ccc(S(=O)(=O)O)cc1.O.O=S(=O)(O)C(F)(F)F.[Cu+2]`, the T/C (dose: 12.5 mg/kg/injection, schedule: Q01DX009 (ip), vehicle: saline) was 126 % of control and the T/C under setting [6] was 126 % of control. Regarding `Nc1ccc(C(OC(=O)c2cc3ccccc3c(Cc3c(O)c(C(=O)OC(c4ccc(N)cc4)(c4ccc(N)cc4)c4ccc(N)cc4)cc4ccccc34)c2O)(c2ccc(N)cc2)c2ccc(N)cc2)cc1`, the T/C is, setting by setting: (dose: 3.13 mg/kg/injection, schedule: Q01DX009 (ip), vehicle: saline with Tween-80) 141 % of control; (dose: 6.25 mg/kg/injection, schedule: Q01DX009 (ip), vehicle: saline with Tween-80) 149 % of control. Also, the survivor count under setting [5] is given as 4 of 6.

Turning to `CC(C)C1=CC2=CC(=O)C3C(C)(C)CCCC3(C)C2=C(O)C1=O` (configuration not stated), the survivor count is reported as 1 of 6 (dose: 20.0 mg/kg/injection, schedule: Q01DX010 (ip), vehicle: other) and 0 of 6 (dose: 40.0 mg/kg/injection, schedule: Q01DX010 (ip), vehicle: other).

The record behind these values is PubChem BioAssay AID328 (DTP/NCI, 2004).
